From the supplement of paper PMC12819154, “High-throughput peptide-centric local stability assay extends protein–ligand identification to membrane proteins, tissues and bacteria” (Nature Structural & Molecular Biology, 2025)
The other results are listed elsewhere or left out. Most values lie at the level of the controls, where differences are scatter.

Chains of the proteins cited; added tags and fusions are not shown. Lines headed by an entry give the natural chain unless they say otherwise; changes in a name come on top.
UniProt Q9Y5L0: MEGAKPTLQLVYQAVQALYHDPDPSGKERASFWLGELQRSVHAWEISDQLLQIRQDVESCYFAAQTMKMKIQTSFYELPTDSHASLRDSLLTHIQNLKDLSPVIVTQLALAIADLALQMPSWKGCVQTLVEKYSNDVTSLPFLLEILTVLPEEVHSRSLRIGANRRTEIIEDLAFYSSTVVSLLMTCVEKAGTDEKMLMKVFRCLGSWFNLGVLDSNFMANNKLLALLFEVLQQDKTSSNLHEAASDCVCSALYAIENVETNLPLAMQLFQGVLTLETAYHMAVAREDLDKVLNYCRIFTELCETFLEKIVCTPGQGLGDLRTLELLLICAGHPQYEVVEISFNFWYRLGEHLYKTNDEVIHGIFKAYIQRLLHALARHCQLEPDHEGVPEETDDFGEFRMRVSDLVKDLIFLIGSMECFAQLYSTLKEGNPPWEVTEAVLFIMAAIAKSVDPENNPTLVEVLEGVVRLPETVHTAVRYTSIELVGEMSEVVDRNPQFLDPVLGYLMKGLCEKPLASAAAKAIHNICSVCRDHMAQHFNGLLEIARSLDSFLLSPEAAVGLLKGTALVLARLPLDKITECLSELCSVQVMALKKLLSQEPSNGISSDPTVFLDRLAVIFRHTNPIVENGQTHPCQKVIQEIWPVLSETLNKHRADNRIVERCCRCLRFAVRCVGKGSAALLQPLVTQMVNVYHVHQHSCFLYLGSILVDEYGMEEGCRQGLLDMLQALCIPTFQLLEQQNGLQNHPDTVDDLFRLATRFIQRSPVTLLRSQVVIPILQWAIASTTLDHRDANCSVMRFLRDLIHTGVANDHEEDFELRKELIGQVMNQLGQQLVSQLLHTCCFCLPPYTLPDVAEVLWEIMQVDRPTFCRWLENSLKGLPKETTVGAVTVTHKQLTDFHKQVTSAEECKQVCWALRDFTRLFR
UniProt Q9Y2G9: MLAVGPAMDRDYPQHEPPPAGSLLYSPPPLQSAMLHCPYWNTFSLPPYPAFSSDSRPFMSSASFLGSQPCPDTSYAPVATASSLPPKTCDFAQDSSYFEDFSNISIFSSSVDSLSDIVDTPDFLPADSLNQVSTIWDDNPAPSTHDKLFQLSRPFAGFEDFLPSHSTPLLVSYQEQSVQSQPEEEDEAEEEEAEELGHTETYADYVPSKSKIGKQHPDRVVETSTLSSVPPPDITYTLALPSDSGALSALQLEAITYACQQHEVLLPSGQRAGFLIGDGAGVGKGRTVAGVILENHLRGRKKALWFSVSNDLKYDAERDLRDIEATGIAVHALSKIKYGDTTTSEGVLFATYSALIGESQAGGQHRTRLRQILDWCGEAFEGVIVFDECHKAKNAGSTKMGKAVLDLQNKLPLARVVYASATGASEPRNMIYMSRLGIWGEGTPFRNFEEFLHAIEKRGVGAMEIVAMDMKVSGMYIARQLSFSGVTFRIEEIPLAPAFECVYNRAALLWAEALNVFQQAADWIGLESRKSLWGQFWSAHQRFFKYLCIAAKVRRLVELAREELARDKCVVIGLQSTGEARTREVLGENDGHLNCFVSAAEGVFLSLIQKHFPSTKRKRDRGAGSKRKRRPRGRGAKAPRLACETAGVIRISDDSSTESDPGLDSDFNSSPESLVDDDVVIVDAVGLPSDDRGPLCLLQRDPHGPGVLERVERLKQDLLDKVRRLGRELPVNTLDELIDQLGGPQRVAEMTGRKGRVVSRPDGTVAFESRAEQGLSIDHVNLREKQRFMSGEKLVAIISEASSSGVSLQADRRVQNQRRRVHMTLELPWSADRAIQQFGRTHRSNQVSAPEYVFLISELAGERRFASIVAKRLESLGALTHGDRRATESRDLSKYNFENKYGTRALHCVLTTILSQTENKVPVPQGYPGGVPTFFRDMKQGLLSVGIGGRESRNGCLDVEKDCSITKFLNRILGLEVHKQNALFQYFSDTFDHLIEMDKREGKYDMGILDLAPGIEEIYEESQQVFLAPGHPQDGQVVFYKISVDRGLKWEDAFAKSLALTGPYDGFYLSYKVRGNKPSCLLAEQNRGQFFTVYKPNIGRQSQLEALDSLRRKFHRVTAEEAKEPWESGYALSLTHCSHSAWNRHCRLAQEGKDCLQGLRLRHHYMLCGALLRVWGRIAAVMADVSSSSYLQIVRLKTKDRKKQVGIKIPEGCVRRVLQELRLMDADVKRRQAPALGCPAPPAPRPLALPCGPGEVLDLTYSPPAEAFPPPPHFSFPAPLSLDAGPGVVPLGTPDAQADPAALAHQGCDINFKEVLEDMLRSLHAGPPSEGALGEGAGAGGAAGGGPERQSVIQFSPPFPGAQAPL
UniProt Q9Y6U3: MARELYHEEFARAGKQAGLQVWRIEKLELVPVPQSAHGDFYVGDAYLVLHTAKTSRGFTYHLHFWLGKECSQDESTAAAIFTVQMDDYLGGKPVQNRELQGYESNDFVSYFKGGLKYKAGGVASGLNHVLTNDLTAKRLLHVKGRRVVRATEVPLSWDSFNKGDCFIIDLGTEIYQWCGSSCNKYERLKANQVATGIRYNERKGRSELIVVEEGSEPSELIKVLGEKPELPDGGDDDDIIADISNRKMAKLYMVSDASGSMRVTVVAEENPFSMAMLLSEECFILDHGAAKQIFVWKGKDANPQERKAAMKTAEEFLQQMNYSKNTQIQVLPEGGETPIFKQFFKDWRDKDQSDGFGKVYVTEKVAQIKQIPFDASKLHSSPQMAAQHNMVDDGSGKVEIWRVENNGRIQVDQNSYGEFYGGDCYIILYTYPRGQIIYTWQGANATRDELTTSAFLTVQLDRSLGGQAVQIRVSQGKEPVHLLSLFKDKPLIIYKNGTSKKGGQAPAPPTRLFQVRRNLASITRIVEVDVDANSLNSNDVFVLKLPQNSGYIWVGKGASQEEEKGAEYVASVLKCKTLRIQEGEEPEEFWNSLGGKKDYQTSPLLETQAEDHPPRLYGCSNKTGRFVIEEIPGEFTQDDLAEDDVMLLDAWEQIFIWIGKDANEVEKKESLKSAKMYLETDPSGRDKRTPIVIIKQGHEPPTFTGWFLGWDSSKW
UniProt Q9Y462: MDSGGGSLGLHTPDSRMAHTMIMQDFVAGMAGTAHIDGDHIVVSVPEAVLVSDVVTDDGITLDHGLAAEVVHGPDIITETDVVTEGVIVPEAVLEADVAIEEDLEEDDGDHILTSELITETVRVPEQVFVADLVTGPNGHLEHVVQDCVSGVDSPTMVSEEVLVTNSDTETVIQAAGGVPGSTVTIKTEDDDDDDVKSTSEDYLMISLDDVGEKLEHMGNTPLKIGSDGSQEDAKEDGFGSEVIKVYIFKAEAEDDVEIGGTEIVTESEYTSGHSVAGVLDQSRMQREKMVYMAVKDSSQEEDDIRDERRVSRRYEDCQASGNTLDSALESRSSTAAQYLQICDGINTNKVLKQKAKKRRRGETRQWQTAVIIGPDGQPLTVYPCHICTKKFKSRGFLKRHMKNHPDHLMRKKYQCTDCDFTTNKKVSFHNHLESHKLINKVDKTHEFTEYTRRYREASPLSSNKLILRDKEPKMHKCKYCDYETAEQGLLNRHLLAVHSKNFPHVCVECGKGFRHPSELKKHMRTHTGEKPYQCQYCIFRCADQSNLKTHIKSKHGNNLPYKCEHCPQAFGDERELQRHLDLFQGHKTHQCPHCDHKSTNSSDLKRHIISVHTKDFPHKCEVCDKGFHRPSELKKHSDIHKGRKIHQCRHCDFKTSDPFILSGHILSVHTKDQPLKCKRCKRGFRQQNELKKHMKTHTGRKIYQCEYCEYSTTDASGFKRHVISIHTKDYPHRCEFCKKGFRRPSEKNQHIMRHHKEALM
UniProt Q9Y2P8: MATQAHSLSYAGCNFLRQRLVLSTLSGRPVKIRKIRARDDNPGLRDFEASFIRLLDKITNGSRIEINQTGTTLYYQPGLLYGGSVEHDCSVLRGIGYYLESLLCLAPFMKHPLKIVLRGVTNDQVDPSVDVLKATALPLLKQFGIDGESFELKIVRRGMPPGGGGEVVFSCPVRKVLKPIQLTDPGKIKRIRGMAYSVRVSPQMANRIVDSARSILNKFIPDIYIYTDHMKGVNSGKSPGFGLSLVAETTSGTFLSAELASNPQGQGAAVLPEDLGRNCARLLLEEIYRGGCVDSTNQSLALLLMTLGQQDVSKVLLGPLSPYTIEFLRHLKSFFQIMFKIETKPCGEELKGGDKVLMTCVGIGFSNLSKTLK
UniProt Q9Y5K6, whole entry: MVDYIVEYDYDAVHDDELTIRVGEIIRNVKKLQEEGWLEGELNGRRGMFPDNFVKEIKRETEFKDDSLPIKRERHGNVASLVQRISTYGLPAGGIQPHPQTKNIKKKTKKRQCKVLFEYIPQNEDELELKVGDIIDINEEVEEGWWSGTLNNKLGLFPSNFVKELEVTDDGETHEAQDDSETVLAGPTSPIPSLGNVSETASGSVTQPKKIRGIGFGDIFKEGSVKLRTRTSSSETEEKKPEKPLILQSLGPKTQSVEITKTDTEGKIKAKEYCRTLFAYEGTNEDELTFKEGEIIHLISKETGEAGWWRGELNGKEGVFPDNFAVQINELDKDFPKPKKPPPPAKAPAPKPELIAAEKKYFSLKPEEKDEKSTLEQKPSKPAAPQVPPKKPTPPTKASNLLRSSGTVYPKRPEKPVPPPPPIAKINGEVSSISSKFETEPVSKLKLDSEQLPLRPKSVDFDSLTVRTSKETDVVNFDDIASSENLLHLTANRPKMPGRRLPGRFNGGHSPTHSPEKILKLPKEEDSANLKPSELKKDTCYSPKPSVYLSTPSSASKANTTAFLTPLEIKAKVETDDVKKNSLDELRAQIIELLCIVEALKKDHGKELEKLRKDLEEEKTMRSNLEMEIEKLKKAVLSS
UniProt Q9Y5K5, whole entry: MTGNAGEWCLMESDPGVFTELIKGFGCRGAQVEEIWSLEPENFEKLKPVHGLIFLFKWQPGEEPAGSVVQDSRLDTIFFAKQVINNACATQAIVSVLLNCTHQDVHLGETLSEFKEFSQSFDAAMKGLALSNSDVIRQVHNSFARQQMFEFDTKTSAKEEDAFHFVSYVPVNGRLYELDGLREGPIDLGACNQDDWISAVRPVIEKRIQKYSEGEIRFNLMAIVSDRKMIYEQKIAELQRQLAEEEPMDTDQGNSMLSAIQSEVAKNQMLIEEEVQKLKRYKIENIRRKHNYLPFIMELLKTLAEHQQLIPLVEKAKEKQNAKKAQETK

compound: Cc1nc(Nc2ncc(C(=O)Nc3c(C)cccc3Cl)s2)cc(N2CCN(CCO)CC2)n1 [dasatinib]; assay: log2 fold change of tryptic peptide abundance, ligand vs vehicle (limited proteolysis) (log2 ratio); higher = more trypsin-susceptible (destabilized); settings: ligand concentration: 5 uM; sample: K562 cleared lysate

Row | Target | log2 fold change
1 | ICE1 (peptide sequence: SSGIEYTK, peptide start residue: 720) (UniProt Q9Y2F5) | 0.417
2 | TNPO3 (peptide sequence: DHMAQHFNGLLEIAR, peptide start residue: 532) (UniProt Q9Y5L0) | -0.526
3 | SBNO2 (peptide sequence: ILGLEVHK, peptide start residue: 972) (UniProt Q9Y2G9) | 0.299
4 | SCIN (peptide sequence: GKDANPQER, peptide start residue: 298) (UniProt Q9Y6U3) | 0.555
5 | UniProt Q9Y462 (peptide sequence: VDKTHEFTEYTR, peptide start residue: 442) | -0.194
6 | RCL1 (peptide sequence: FIPDIYIYTDHMK, peptide start residue: 219) (UniProt Q9Y2P8) | -0.162
7 | CD2AP (peptide sequence: DLEEEKTMR, peptide start residue: 614) (UniProt Q9Y5K6) | 1.24
8 | NOC2L (peptide sequence: LFHEVVQAFR, peptide start residue: 169) (UniProt Q9Y3T9) | -1.16
9 | UCHL5 (peptide sequence: FNLMAIVSDR, peptide start residue: 218) (UniProt Q9Y5K5) | -0.311
